Data taken from publication PMC4542545.
No constants are given. Whether binding was seen depends on the method and setting. Binding seen in cells or lysates may run through a third protein.

By UniProt entry, the sequences of proteins in these tests, tags left out. Where a name states a change or a piece, a line headed by the entry shows the natural chain unless it says otherwise. Chains listed by the source or under a name are the forms on record and can include a tag or linker. Residues count along the entry.
UniProt O94811: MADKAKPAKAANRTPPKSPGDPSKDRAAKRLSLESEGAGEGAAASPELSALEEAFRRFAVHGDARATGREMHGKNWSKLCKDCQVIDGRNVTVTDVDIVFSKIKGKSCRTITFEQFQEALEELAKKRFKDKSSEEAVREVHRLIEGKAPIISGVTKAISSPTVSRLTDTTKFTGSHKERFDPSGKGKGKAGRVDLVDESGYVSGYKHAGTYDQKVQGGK
TPPP/p25 ΔC(158) fused to a Venus N-terminal fragment: residues 1-157 of O94811
TPPP/p25 ΔN(49) fused to a Venus N-terminal fragment: residues 50-219 of O94811

How the values were obtained:
Experiment in all cases: split reporter; Venus BiFC in HeLa cells co-transfected with VN and VC fusions (0.3 μg of each plasmid), fixed 24 h later; some cells treated 3 h with nocodazole or vinblastine
[1] = target: TPPP/p25 ΔC(158) fused to a Venus N-terminal fragment (human) (UniProt O94811)
[2] = target: TPPP/p25 ΔN(49) fused to a Venus N-terminal fragment (human) (UniProt O94811)
[3] = target: myc-tagged full-length TPPP/p25 fused to VN155(I152L) (human) (UniProt O94811)

Measured: binding

HA-tagged TPPP/p25 core fused to VC155 (from UniProt O94811 50-157) (domain or fragment)
no binding: all assays above
